According to PMC5059489, “Mechanistic evaluation and transcriptional signature of a glutathione S-transferase omega 1 inhibitor” (Nature Communications, 2016):

Test system: HCT116p53+/+ cell
Test: MTT cell proliferation at single concentration
Format: cell-based, human

Row | Structure (SMILES) | % Inhibition of HCT116p53+/+ cell proliferation at 10 µM
1 | CCOc1ccc(NC(=O)CCl)cc1S(=O)(=O)N1CCCCC1 [C1-30] | 45% and 20.7%
2 | CC(C)c1ccc(C(NC(=O)CCl)C(C)C)cc1 (stereo not drawn) [C3-6] | 13.6% and 34.7%
3 | O=C(CCl)N1CCN(S(=O)(=O)c2ccc(F)c(F)c2)CC1 [C5-14] | 28.2% and 11.4%

Not every entry of the source has a single result; some have several. This list holds those alone. An entry can have further records. The values listed for one entry differ for a reason that is not stated; some may be repeats, others may stem from another dose, organism or construct than stated.
